The text below walks through data of patent US7615102B2, “Corrosion and gas hydrate inhibitors with an increased biological degradability and a reduced toxicity” (Clariant Produkte (Deutschland) GmbH, priority 2004, dated 2009).

Data set [1] in a line: Shell wheel test (corrosion inhibition). The following applies: 50 ppm of a 40% solution of the inhibitor; salt water/petroleum mixture, pH 3.5, 40 rpm, 70° C., 24 hours; from mass decrease of coupons based on a blank value.
The nature of data set [2]: LPR test (corrosion inhibition, analogous to ASTM D 2776).

Take “Dodecenyl-/tetradecenylsuccinic Acid N,N-dibutylamino-N-tri(ethoxy)ethyl Ester [Compound from example 4]”: in data set [1], the “ø Protection %” value came to 78.4%. In addition, in data set [2], the “Protection after 10 min” value stood at 52.4%, the “Protection after 30 min” value stood at 66.8% and the “Protection after 60 min” value came out at 78.8%.
In the case of “Pentapropylenesuccinic Acid N,N-dibutylamino-N-ethyl Ester [Compound from example 2]”, the “ø Protection %” value in data set [1] was found to be 79.3%. Moreover, in data set [2], the “Protection after 10 min” value turned out to be 50.3%, the “Protection after 30 min” value is 65.7% and the “Protection after 60 min” value amounted to 79.3%.
Turning to “Pentapropylenesuccinic Acid N,N-dibutylamino-N-tri(ethoxy)ethyl Ester [Compound from example 7]”, in data set [1], the “ø Protection %” value was 81.3%. Besides, in data set [2], the “Protection after 10 min” value was found to be 55.8%, the “Protection after 30 min” value came to 70.1% and the “Protection after 60 min” value worked out at 83.5%.
